In article PMC8372377 one finds binding data, which are given here for 1 molecule.

Amino acid sequences for entries named in this document (tags omitted).
UniProt Q9NPQ8: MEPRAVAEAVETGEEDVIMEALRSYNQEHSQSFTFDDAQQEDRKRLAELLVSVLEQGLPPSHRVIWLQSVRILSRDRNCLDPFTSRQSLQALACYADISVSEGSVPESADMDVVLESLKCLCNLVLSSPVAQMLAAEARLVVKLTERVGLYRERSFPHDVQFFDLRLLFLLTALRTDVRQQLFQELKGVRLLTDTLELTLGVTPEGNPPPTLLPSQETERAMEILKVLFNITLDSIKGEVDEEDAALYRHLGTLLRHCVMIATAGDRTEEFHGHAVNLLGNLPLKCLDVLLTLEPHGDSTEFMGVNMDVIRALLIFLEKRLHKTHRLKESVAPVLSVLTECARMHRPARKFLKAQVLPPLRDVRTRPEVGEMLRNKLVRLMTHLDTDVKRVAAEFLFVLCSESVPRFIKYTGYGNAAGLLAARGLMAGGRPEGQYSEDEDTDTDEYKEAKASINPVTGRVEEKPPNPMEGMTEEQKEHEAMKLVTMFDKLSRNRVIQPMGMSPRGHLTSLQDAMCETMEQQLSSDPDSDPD

Results are given in words; binding and its absence hold for the method and conditions named. Binding seen in cells or lysates may run through a third protein. Some entries that bind do so weakly or less than the wild type.

The target of this test is RIC8 guanine nucleotide exchange factor A (RIC8A) (UniProt Q9NPQ8). In words: co-IP; immunoprecipitation (IP) assay (figure 4A); also in circPDE4B knockdown and overexpression cells (figure 4D: binding decreased with knockdown, the opposite with overexpression).

B1: midline 1 (MID1) (protein, UniProt O15344 1-667)
chain: METLESELTCPICLELFEDPLLLPCAHSLCFNCAHRILVSHCATNESVESITAFQCPTCRHVITLSQRGLDGLKRNVTLQNIIDRFQKASVSGPNSPSETRRERAFDANTMTSAEKVLCQFCDQDPAQDAVKTCVTCEVSYCDECLKATHPNKKPFTGHRLIEPIPDSHIRGLMCLEHEDEKVNMYCVTDDQLICALCKLVGRHRDHQVAALSERYDKLKQNLESNLTNLIKRNTELETLLAKLIQTCQHVEVNASRQEAKLTEECDLLIEIIQQRRQIIGTKIKEGKVMRLRKLAQQIANCKQCIERSASLISQAEHSLKENDHARFLQTAKNITERVSMATASSQVLIPEINLNDTFDTFALDFSREKKLLECLDYLTAPNPPTIREELCTASYDTITVHWTSDDEFSVVSYELQYTIFTGQANVVSLCNSADSWMIVPNIKQNHYTVHGLQSGTKYIFMVKAINQAGSRSSEPGKLKTNSQPFKLDPKSAHRKLKVSHDNLTVERDESSSKKSHTPERFTSQGSYGVAGNVFIDSGRHYWEVVISGSTWYAIGLAYKSAPKHEWIGKNSASWALCRCNNNWVVRHNSKEIPIEPAPHLRRVGILLDYDNGSIAFYDALNSIHLYTFDVAFAQPVCPTFTVWNKCLTIITGLPIPDHLDCTEQLP
Consider B1, for which the binding entry is recorded as “binds”.
